Reference: publication PMC11989279
No constants are given. Whether binding was seen depends on the method and setting. In cells and extracts the contact can be indirect. Some results given as binding are weak or reduced against the parent protein; the word gives no strength.

Protein sequences, listed by entry. Tags and fused reporters are not part of them.
UniProt P25098: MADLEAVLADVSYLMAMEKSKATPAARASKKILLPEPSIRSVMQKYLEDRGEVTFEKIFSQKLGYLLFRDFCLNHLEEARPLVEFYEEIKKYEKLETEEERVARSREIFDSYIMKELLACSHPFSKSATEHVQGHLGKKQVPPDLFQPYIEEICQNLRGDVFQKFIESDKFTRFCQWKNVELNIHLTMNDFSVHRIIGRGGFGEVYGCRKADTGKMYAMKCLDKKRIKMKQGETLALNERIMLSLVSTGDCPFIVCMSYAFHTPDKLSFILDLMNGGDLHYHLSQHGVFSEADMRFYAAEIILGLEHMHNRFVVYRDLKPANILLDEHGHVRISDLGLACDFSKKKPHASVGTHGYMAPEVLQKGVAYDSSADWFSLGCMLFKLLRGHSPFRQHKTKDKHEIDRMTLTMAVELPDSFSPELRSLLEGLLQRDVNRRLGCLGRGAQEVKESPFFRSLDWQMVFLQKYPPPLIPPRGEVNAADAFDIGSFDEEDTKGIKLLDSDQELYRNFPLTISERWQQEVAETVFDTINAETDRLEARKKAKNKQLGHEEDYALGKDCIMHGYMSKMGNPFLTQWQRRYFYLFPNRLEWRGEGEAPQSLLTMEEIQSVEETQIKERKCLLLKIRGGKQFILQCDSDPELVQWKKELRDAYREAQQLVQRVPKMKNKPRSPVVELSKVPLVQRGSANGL
UniProt P63010: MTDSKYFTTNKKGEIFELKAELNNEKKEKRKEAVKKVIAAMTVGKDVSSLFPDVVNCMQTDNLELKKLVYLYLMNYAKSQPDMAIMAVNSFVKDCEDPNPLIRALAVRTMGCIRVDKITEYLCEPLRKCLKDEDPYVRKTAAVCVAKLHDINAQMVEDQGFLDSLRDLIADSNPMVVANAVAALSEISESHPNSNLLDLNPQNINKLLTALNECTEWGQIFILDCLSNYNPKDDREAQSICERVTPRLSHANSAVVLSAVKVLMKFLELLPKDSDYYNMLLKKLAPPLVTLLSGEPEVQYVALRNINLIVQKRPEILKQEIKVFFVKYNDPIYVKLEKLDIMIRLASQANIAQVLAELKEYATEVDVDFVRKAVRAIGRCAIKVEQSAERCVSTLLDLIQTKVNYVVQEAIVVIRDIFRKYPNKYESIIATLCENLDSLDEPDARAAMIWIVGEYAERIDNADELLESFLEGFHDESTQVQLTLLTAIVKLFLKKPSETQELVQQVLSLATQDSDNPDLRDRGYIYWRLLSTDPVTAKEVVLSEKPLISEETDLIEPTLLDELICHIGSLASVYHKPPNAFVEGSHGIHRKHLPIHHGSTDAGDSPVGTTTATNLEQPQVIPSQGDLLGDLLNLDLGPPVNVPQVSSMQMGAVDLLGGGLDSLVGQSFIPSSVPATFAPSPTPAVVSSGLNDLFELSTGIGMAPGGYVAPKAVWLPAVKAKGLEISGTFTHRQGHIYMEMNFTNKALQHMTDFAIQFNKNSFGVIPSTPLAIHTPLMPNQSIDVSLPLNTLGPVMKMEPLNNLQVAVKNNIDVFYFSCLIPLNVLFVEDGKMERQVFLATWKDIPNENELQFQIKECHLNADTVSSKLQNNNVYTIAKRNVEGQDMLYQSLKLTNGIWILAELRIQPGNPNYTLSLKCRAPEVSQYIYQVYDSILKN
UniProt Q03135: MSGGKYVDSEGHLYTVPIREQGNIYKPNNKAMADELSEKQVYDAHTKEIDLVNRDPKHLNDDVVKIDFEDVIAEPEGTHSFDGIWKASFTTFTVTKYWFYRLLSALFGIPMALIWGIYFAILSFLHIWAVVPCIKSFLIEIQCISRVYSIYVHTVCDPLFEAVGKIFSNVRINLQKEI
UniProt Q00610: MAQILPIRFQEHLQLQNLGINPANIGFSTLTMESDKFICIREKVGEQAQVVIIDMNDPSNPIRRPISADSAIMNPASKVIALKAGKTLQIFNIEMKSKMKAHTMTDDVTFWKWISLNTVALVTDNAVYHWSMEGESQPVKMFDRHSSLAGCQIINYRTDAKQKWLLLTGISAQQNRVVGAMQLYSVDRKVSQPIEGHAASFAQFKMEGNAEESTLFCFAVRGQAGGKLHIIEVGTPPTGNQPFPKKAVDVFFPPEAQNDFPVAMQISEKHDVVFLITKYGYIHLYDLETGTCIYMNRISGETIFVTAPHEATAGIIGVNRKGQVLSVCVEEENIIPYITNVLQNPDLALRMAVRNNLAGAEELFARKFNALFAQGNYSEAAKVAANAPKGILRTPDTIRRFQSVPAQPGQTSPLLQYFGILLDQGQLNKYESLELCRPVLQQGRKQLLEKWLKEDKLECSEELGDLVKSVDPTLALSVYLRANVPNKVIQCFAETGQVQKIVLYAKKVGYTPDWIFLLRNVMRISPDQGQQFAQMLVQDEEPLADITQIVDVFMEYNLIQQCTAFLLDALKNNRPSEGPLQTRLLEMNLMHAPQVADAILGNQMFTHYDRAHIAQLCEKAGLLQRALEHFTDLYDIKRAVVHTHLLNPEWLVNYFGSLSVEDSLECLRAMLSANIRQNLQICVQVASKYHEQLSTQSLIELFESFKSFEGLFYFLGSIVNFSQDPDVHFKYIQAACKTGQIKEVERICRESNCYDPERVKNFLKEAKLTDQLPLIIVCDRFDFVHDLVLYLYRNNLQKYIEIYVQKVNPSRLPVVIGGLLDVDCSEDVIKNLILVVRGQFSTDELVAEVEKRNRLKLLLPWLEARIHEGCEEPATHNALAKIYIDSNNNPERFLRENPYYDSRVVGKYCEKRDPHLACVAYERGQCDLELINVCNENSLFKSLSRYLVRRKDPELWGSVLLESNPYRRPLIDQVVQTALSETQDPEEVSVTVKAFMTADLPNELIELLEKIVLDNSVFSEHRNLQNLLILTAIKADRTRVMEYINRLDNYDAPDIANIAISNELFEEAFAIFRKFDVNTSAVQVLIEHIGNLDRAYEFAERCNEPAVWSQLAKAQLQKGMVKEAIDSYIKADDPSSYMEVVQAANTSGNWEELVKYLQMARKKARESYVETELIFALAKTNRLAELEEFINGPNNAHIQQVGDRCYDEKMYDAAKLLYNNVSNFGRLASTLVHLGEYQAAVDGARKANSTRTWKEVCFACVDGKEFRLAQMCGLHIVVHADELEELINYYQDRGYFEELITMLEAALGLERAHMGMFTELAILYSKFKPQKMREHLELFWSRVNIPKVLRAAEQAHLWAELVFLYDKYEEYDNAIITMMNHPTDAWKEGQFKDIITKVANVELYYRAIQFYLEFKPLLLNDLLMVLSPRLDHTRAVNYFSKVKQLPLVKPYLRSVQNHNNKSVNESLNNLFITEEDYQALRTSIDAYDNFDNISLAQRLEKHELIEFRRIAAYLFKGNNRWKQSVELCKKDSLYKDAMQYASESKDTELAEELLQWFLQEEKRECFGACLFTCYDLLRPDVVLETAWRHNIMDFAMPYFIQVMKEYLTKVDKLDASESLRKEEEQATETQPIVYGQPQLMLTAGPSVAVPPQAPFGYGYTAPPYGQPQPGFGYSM
UniProt Q00987: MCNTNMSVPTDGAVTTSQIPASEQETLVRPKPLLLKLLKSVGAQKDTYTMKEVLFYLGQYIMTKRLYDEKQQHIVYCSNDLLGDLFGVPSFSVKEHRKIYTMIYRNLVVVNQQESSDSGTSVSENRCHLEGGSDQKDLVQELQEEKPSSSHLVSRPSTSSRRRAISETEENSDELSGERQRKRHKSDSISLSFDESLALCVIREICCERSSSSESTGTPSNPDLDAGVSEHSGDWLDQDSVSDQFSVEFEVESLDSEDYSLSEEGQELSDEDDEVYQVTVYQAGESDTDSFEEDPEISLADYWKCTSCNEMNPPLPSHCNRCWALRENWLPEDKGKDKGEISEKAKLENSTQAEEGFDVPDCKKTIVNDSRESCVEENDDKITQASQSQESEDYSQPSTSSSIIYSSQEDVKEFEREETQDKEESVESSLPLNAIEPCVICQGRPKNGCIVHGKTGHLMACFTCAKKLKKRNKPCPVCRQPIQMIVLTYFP

Tests used:
FLAG-GRK2, wild type = FLAG-GRK2, wild type (UniProt P25098); assay: co-IP; HEK-293 cells transfected with D2R and the FLAG-tagged bait, treated with vehicle or 10 μM DA (2 min; 2 and 5 min in Figure 8B); RIPA lysates, agarose beads with antibodies against FLAG 2–3 h at 4 °C; immunoblot of the co-precipitate
[1] = target: FLAG-arrestin3, wild type (UniProt P32121); assay: as above
[2] = target: FLAG-tagged β2 adaptin (β2 subunit of adaptor protein complex 2) (UniProt P63010); assay: as above
[3] = target: FLAG-arrestin3, wild type (UniProt P32121); assay: co-IP; Con-KD and GRK2-KD HEK-293 cells transfected with D2R, HA-Ub, FLAG-arrestin3 and a mock vector, WT-GRK2 or 4KR-GRK2; 10 μM DA 2 min; how Mdm2 was detected is not told in the legend

| binding (FLAG-GRK2, wild type) | binding [1] | binding [2] | Substance | other results |
| --- | --- | --- | --- | --- |
| binds | binds |  | caveolin1 (Cav1), endogenous (from UniProt Q03135 1-178) |  |
| binds | binds |  | clathrin heavy chain (CHC), endogenous (from UniProt Q00610 1-1675) |  |
|  |  | binds | GFP-tagged K11/12R-arrestin3 (from UniProt P32121 1-409) |  |

Further lines, the substance ahead of its results:

| Substance | binding (FLAG-GRK2, wild type) | binding [1] | binding [2] | other results |
| --- | --- | --- | --- | --- |
| GFP-tagged WT-arrestin3 (from UniProt P32121 1-409) |  |  | binds |  |
| GRK2 (G protein-coupled receptor kinase 2), wild type, untagged (from UniProt P25098 1-689) (enzyme) |  |  | binds |  |
| Mdm2 (as found with FLAG-arrestin3, Figure 3D) (from UniProt Q00987 1-491) (enzyme) |  |  |  | binding [3]: binds |
